At least one compound was matched to its structure with a doubt left.
Assay: Hydrolysis kinetics of free monomers under mild alkaline conditions, residual monomer quantified by capillary electrophoresis
Details: 0.1N NaOH, 70°C

C=CC(N)=O [acrylamide]
hydrolysis constant (K): 0.00083 M⁻¹ s⁻¹
